Experimental data as given in publication PMC3396603.
These are yes or no findings as the source states them, for the method shown. In cells and extracts the contact can be indirect. Some entries that bind do so weakly or less than the wild type.

By UniProt entry, the sequences of proteins in these tests, tags left out. Residues count along the entry.
UniProt Q9QUN7, residues 25-784: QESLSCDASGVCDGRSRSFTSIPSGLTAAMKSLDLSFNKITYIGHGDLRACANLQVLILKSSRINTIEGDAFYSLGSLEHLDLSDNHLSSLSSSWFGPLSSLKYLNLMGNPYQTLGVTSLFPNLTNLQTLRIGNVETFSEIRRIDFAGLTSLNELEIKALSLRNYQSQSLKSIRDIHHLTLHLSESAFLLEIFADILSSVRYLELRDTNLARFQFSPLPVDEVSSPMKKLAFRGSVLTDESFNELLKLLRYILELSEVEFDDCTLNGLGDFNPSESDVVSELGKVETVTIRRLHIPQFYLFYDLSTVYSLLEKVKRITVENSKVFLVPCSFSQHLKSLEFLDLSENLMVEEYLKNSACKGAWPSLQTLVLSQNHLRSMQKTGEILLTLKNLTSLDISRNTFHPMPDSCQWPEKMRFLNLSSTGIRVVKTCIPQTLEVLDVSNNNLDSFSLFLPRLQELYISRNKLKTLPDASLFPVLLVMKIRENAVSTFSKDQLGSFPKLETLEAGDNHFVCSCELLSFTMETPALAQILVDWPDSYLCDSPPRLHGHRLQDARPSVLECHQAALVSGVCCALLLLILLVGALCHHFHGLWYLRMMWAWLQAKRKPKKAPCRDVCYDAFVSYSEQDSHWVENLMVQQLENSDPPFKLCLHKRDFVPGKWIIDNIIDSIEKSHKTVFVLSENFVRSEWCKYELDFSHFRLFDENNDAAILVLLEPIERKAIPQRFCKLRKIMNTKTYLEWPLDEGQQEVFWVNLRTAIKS
UniProt P63158: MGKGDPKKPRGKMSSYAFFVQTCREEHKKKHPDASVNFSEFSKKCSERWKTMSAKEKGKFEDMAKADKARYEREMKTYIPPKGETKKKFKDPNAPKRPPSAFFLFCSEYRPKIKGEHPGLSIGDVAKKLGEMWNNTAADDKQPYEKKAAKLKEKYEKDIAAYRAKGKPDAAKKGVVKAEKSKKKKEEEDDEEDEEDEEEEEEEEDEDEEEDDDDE

Molecular target: toll-like receptor (TLR) 2 (mouse (endogenous in mouse heart)) (UniProt Q9QUN7)
Experiment: co-IP; heart homogenates in 1x RIPA buffer with PMSF and protease inhibitors; HMGB1 or TLR2 antibody (2 ug) in 700 ul lysate, Protein A/G PLUS-Agarose, 4°C, 5 washes with RIPA, immunoblot; mice treated beforehand with saline, or Dox and IgG, TLR2Ab or TLR4Ab

high mobility group box (HMGB)1 (from UniProt P63158 1-215) (ligand)
binding: binds
